Results as given in patent US4656158A, “Peptide, and production and use thereof” (Suntory Limited, priority 1984, dated 1987).
Not every detail of the peptide structures is certain; ends, links or a residue may be inferred.

Assays:
Male rats [1] = experiment: diuretic and natriuretic action in anesthetized rats (urine collection via bladder cannula); assay type: in vivo, rat
Male rats [2] = experiment: hypotensive or antihypertensive action (blood pressure via femoral artery cannula); conditions: rat, in vivo
chick rectum = chick rectum relaxation activity; conditions: used to select fractions containing β-hANP

CC[C@H](C)[C@@H]1NC(=O)[C@H](CCCNC(=N)N)NC(=O)[C@H](CC(=O)O)NC(=O)[C@H](CCSC)NC(=O)[C@H](CCCNC(=N)N)NC(=O)CNC(=O)CNC(=O)[C@H](Cc2ccccc2)NC(=O)[C@@H](NC(=O)[C@H](CO)NC(=O)[C@H](CO)NC(=O)[C@H](CCCNC(=N)N)NC(=O)[C@H](CCCNC(=N)N)NC(=O)[C@H](CC(C)C)NC(=O)[C@@H](N)CO)CSSC[C@@H](C(=O)N[C@@H](CC(N)=O)C(=O)N[C@@H](CO)C(=O)N[C@@H](Cc2ccccc2)C(=O)N[C@@H](CCCNC(=N)N)C(=O)N[C@@H](Cc2ccc(O)cc2)C(=O)O)NC(=O)CNC(=O)[C@H](CC(C)C)NC(=O)CNC(=O)[C@H](CO)NC(=O)[C@H](CCC(N)=O)NC(=O)[C@H](C)NC(=O)CNC(=O)[C@H]([C@@H](C)CC)NC(=O)[C@H](CCCNC(=N)N)NC(=O)[C@H](CC(=O)O)NC(=O)[C@H](CCSC)NC(=O)[C@H](CCCNC(=N)N)NC(=O)CNC(=O)CNC(=O)[C@H](Cc2ccccc2)NC(=O)[C@@H](NC(=O)[C@H](CO)NC(=O)[C@H](CO)NC(=O)[C@H](CCCNC(=N)N)NC(=O)[C@H](CCCNC(=N)N)NC(=O)[C@H](CC(C)C)NC(=O)[C@@H](N)CO)CSSC[C@@H](C(=O)N[C@@H](CC(N)=O)C(=O)N[C@@H](CO)C(=O)N[C@@H](Cc2ccccc2)C(=O)N[C@@H](CCCNC(=N)N)C(=O)N[C@@H](Cc2ccc(O)cc2)C(=O)O)NC(=O)CNC(=O)[C@H](CC(C)C)NC(=O)CNC(=O)[C@H](CO)NC(=O)[C@H](CCC(N)=O)NC(=O)[C@H](C)NC(=O)CNC1=O [β-hANP, β-human atrial natriuretic polypeptide]
diuretic and natriuretic actions (Male rats [1]; 0.8 n mole injected into the jugular vein, anesthetized male rats, FIG. 1): notable diuretic and natriuretic actions
diuretic and natriuretic actions compared with furosemide (Male rats [1]; 0.8 n mole of β-hANP vs 1.21 μ mole of furosemide): comparable to those provided by 1.21 μ mole of furosemide
diuretic and natriuretic actions compared with α-hANP (Male rats [1]; anesthetized male rats, magnitude of actions vs α-hANP): comparable to those of α-hANP
duration of diuretic and natriuretic actions compared with α-hANP (Male rats [1]; anesthetized male rats, period the actions are maintained): maintained for a period longer than that of α-hANP
onset of diuretic and natriuretic actions compared with furosemide (Male rats [1]; anesthetized male rats, rapidity of actions): more rapidly than furosemide
hypotensive or antihypertensive actions (Male rats [2]): notable
chick rectum relaxation activity (chick rectum): has this activity
